Values quoted from earlier work, collected in article PMC9341340, “The gram-negative bacterium Escherichia coli as a model for testing the effect of carbonic anhydrase inhibition on bacterial growth” (Journal of Enzyme Inhibition and Medicinal Chemistry, 2022).
pKi: −log10 of the molar value.

Biological target: T1, EcoCAγ (γ-CA)
T1 construct: gene yrdA
Conditions: read-out: KI (acetazolamide); CO2 hydration, 20 °C, pH 8.3, 20 mM TRIS, 20 mM NaClO4; mean of 3 assays, errors ±5–10%; same value stated as shown earlier by the same groups (b6)

In the case of CC(=O)Nc1nnc(S(N)(=O)=O)s1 [AZA, 5-acetamido-1,3,4-thiadiazole-2-sulphonamide], the pKi is given as 6.61.
